About 210 (0.4%) of roughly 52,000 sequences were called active.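 The calls were made as follows: active = gene whose silencing raises cell survival under the drug, median off-target-corrected z-score across its silencing RNAs 2 or more; inactive = the rest.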 The list shows a part of the results.
experiment: Resistance to Poly (ADP-Ribose) Polymerase inhibitor: Gene Identification via Genome-wide siRNA Screen; settings: mouse BRCA2 R2336H ES cells, olaparib, CellTiter-Glo viability; stronger effect = higher value
In short: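 Mouse BRCA2 R2336H ES cells were reverse-transfected with siRNA (20 nM final), treated at 48 h with 500 nM olaparib, and read by CellTiter-Glo after 72 h. Scores: MAD-based z per siRNA, median per gene, seed off-target correction.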

| Sequence | z-score |
| --- | --- |
| GGGAAAAAUGGCCUUUCUGTT against 2410012C07Rik | inactive: 1.18 |
| GGGUAAUGCAAAGAAAACATT against Dlc1 | inactive: 0.839 |
| GGACAUCAGUAUGAAUAAGTT against AI553587 | inactive: -0.448 |
| GGGUACAAGCUUAUCAAUATT against Trpm6 | inactive: 0.137 |
| GCUACAUGUACCAGACAAATT against Hspb7 | inactive: -2.12 |
| GGGACCUGAGGAAAACUGUTT against Ctdsp2 | inactive: 0.413 |
| GGGAGCUACUACCUAUGAUTT against Dio2 | inactive: -1.48 |
| CCUGGAUGUAGACUUCGCATT against Slc6a7 | inactive: 1.23 |
| CCAUGGGUACCUAUAUCGUTT against 5730466C23Rik | inactive: -0.833 |
| GUCAUCUUGUUCCAUCUGATT against Olfr1269 | inactive: 0.987 |
| GGAUGACUUCUGUCUUCUUTT against AW491445 | inactive: -0.349 |
| CCCUGCAUUUGUCAAUUAUTT against Hnrpl | inactive: 0.422 |
| GGUUUAUGGGACAGUUUUUTT against Plk2 | inactive: 0.337 |
| GGAAUUUGCUGCCCUCCUATT against Smad3 | inactive: -2.09 |
| GGAAAUUUCAAGAGCAAGATT against Rras2 | inactive: 1.67 |
| GGGCUUCUAUUUGUUCCACTT against Lrfn5 | inactive: -0.526 |
| GCCCGUUCCUUUUAUGUAUTT against Klf3 | inactive: -0.651 |
| GGAACCAAGGAUGUGAAAGTT against Rab13 | inactive: -0.614 |
| GGAGGAGAAUGCCACAACUTT against 425O18-1 | inactive: -2.02 |
| GGAUGGUCAUAAGGAUCAATT against Gpr128 | active: 2.66 |
| GGGAAACUUCUUCAUGGGUTT against Dazap2 | inactive: -0.172 |
| GGGUAAUUAAAAAGGAAACTT against Nt5c2l1 | inactive: 1.84 |
| GGUGACUUUUUGGUACAGATT against Mthfr | inactive: -0.809 |
| GGUGUAGGCUCCCUGACAUTT against C130046B21Rik | inactive: -0.361 |
| GGUACUCCCGAUCUGCUAUTT against Rpl6 | inactive: -3.16 |
| GGUUAAGUGUGUUAAGUUCTT against 2310044G17Rik | inactive: 0.557 |
| CGAAAAGAUAAGCCCUUAATT against Mphosph10 | inactive: -1.06 |
| GGUGUAACUGGGCUGCAUGTT against Avpi1 | inactive: -0.882 |
| GGAGAUAUCCUUUUGCUCUTT against Tbc1d1 | inactive: 0.395 |

Source: PubChem BioAssay AID1347423 (Functional Genomics Laboratory (NCATS/FGL), 2020)
